Values quoted from earlier work in patent US20220267754A1, “VECTOR-BASED MUTAGENESIS SYSTEM” (priority 2015, published 2022).
For at least one compound, name, drawing or mass did not settle the structure.

Test system: E. coli
Details: tabulated from Antimicrobial Index Knowledgebase; cited from earlier work

Compound	MIC
NC[C@H]1O[C@H](O[C@H]2[C@H](O)[C@@H](O[C@H]3O[C@H](CO)[C@@H](O)[C@H](N)[C@H]3O)[C@H](N)C[C@@H]2N)[C@H](O)[C@@H](O)[C@@H]1O [kanamycin]	0.25 to 8 µg/mL
CN(C)[C@@H]1C(O)=C(C(N)=O)C(=O)[C@@]2(O)C(O)=C3C(=O)c4c(O)cccc4[C@@](C)(O)[C@H]3C[C@@H]12 [tetracycline]	0.5 to 8 µg/mL
